Reference: patent US7276582 (JAPAN SCIENCE AND TECHNOLOGY AGENCY, dated 2007)
These are yes or no findings as the source states them, for the method shown. In cells and extracts the contact can be indirect. Some results given as binding are weak or reduced against the parent protein; the word gives no strength. For part of these data: Where a sequence is shown, tags or fusion partners need not be part of it. Blank lines part the entries; values can stand above or below the molecule they belong to.

Chains of the proteins cited; added tags and fusions are not shown. Lines headed by an entry give the natural chain unless they say otherwise; changes in a name come on top. Residues count along the entry.
UniProt P11881: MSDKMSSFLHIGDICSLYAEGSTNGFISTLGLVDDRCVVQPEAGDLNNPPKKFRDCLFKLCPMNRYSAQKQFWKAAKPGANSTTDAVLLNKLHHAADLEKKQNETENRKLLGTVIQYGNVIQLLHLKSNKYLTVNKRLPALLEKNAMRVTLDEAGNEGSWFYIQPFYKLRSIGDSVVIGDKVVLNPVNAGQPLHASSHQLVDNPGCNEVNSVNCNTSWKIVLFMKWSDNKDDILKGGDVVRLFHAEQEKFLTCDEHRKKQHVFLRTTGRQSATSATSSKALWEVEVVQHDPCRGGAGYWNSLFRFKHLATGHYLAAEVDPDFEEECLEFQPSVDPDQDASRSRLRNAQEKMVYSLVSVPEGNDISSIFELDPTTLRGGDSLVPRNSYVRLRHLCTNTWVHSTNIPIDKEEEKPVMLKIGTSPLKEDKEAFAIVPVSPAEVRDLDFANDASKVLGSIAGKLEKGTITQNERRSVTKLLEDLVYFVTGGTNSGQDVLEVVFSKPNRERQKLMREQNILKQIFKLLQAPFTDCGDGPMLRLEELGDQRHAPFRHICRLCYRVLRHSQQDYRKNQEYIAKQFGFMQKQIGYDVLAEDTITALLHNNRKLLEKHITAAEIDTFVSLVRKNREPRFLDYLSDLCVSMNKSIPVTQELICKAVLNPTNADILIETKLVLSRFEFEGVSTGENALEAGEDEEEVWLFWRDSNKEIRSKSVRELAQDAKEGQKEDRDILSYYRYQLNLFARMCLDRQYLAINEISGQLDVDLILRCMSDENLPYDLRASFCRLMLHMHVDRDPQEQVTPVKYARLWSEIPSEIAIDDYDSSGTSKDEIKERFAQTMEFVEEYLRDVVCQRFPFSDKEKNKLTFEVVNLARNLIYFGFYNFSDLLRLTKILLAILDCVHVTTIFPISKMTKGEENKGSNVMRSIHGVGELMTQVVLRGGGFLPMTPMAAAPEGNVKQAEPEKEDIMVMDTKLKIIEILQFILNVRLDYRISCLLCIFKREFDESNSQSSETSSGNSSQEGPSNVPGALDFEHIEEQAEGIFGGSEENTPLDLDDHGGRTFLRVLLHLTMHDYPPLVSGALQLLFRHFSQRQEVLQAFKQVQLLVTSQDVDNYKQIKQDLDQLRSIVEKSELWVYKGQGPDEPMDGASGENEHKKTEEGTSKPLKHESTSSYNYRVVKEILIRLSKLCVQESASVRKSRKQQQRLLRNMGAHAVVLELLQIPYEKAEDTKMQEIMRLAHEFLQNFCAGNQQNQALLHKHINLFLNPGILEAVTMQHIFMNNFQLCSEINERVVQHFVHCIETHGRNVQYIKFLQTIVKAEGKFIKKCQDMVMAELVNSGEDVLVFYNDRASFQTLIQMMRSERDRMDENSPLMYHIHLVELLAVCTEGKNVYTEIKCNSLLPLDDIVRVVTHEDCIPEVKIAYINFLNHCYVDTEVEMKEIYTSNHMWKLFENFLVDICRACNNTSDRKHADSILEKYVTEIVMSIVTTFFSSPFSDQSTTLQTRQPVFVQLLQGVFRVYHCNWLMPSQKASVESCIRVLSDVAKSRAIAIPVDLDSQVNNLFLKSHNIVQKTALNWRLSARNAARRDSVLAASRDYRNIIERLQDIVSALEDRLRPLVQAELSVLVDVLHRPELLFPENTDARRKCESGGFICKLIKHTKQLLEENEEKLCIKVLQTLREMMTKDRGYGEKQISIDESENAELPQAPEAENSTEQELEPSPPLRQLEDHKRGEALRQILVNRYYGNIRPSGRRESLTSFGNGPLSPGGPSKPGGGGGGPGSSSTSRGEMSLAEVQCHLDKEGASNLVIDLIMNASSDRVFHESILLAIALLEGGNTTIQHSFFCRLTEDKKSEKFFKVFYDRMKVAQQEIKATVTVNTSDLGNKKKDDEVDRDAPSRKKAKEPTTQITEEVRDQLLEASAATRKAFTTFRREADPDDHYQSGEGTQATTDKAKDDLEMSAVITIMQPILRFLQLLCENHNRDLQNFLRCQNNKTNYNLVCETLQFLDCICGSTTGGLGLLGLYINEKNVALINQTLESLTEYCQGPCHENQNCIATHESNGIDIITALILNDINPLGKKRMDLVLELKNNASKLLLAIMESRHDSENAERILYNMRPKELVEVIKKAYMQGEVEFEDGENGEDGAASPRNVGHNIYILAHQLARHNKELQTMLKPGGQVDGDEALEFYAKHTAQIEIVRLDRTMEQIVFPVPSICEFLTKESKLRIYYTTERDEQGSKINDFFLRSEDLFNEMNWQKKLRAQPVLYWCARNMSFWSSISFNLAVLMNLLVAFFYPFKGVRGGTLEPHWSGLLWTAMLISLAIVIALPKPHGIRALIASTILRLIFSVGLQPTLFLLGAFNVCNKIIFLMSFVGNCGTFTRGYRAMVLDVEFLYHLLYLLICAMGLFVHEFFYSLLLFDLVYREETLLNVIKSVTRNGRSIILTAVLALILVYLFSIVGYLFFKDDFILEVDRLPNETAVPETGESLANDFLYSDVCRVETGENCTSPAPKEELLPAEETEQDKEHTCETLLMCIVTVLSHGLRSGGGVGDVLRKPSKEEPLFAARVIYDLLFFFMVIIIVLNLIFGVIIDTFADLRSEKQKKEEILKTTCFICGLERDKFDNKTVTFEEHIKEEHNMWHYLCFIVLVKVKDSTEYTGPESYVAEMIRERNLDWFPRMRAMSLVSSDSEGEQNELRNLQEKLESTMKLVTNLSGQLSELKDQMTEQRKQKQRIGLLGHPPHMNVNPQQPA
GST-IP3R1 (1-2217) (GST-EL): residues 1-2217 of P11881

Legend:
[1] = target: T1, GST-CARP (mouse) (UniProt P28651); assay: GST pull-down from detergent extract of mouse cerebellar microsome, immunoblot with anti-IP3R1 antibody KM1112
T1 sequence: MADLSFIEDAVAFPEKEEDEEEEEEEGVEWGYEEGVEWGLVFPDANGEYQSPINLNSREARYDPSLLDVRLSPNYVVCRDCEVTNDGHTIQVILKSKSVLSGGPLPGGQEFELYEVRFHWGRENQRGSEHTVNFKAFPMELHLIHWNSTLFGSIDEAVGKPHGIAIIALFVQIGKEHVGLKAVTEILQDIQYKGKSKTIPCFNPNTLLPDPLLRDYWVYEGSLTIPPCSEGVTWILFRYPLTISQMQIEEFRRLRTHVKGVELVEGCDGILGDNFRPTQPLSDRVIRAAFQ

[2] = target: GST-IP3R1 (1-2217) (GST-EL) (mouse) (UniProt P11881); assay: GST pull-down from mouse cerebellar cytosolic fraction, Western blot with anti-CARP antibody
[3] = target: GST-IP3R1 (1-2217) (GST-EL) (mouse) (UniProt P11881); assay: GST pull-down of purified CARP-His, immunoblot with anti-CARP antibody

- binding [1]: binds
Molecule: IP3R1 of the detergent extract of mouse cerebellar microsome (from UniProt P11881 1-2749) (receptor)

- binding [2]: binds
B1: CARP of the cytosolic fraction of mouse cerebellum (other)
chain: MADLSFIEDAVAFPEKEEDEEEEEEEGVEWGYEEGVEWGLVFPDANGEYQSPINLNSREARYDPSLLDVRLSPNYVVCRDCEVTNDGHTIQVILKSKSVLSGGPLPGGQEFELYEVRFHWGRENQRGSEHTVNFKAFPMELHLIHWNSTLFGSIDEAVGKPHGIAIIALFVQIGKEHVGLKAVTEILQDIQYKGKSKTIPCFNPNTLLPDPLLRDYWVYEGSLTIPPCSEGVTWILFRYPLTISQMQIEEFRRLRTHVKGVELVEGCDGILGDNFRPTQPLSDRVIRAAFQ
notes: Endogenous protein in a tissue fraction, detected by Western blotting with anti-CARP polyclonal antibody; also called endogenous CARP

- binding [3]: binds
B2: CARP-His (protein, not shown: small tags and cut ends)
chain: MADLSFIEDAVAFPEKEEDEEEEEEEGVEWGYEEGVEWGLVFPDANGEYQSPINLNSREARYDPSLLDVRLSPNYVVCRDCEVTNDGHTIQVILKSKSVLSGGPLPGGQEFELYEVRFHWGRENQRGSEHTVNFKAFPMELHLIHWNSTLFGSIDEAVGKPHGIAIIALFVQIGKEHVGLKAVTEILQDIQYKGKSKTIPCFNPNTLLPDPLLRDYWVYEGSLTIPPCSEGVTWILFRYPLTISQMQIEEFRRLRTHVKGVELVEGCDGILGDNFRPTQPLSDRVIRAAFQ
